Reference: PMC7819943, “Rice protein-binding microarrays: a tool to detect cis-acting elements near promoter regions in rice”
The other results are listed elsewhere or left out.

Sequences of proteins named here, by UniProt entry; tags and fusion partners are left off.
UniProt Q0JBA9, entry or part of it: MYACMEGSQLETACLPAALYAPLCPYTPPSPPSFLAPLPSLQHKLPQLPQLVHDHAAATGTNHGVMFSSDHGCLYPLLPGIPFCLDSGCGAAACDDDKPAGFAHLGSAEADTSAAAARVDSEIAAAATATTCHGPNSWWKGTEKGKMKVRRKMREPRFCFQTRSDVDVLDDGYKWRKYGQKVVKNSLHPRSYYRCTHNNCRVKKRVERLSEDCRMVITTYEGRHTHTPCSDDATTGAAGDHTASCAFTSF

target: OsWRKY34 (Oryza sativa, UniProt Q0JBA9 1-250); assay: protein-binding microarray (RPBM); PBS, 2% BSA, 51.3 ng/ul salmon testes DNA, 50 uM zinc acetate, 200 nM TF, 25 C, 1 h; high values mean tight binding; details: protein: recombinant; tags: N-terminal polyhistidine and DsRed monomer fusion (pET32a); label: CyDye5-dUTP incorporated in the synthesized complementary strand; 3' TTTTT single-stranded linker to array surface; dsDNA, one strand shown
In short: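 Polyhistidine-tagged DsRed fusions of transcription factors, joined at the N-terminus, were expressed in E. coli BL21-CodonPlus and isolated on Ni–NTA. They were incubated at 200 nM for 1 h at 25 °C on a custom Agilent array, double-stranded and BSA-blocked, in PBS with 2% BSA, salmon testes DNA and 50 µM zinc acetate. The binding signal is per-feature fluorescence intensity (arbitrary units) read on an Axon 4000B scanner after washing.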

Sequence	binding signal
GGGTATTTCTGTCCTTTTGTTTGTTTCACGAGAGAAAAAACGGAGTCACCTAGTGCAG	9990 fluorescence intensity (a.u.)
AAAAAGAACTGAGTAGGGGTGGACATTTACAATAAAATAACGGAGTCACCTAGTGCAG	8140 fluorescence intensity (a.u.)
GCCTTTTGCCTCTCTTTCTACTCTCTTTCTTGGCCGTCTCCGGAGTCACCTAGTGCAG	8470 fluorescence intensity (a.u.)
CTTTATATGTGATTAAATATTTTTAATTTTTTCATAAATTCGGAGTCACCTAGTGCAG	8390 fluorescence intensity (a.u.)
TGTTTACTGTAGCATCACATTGTTAAATCATAGCGTAATTCGGAGTCACCTAGTGCAG	8600 fluorescence intensity (a.u.)
GCTGCTTTGTTTCTCGTCGCCGTGTGCCTGCGCGCTTGCTCGGAGTCACCTAGTGCAG	8060 fluorescence intensity (a.u.)
GTTCATGTCACAGAAAAGTCAACCCACTTAGTTTAACGCCCGGAGTCACCTAGTGCAG	8680 fluorescence intensity (a.u.)
ATCGAGGTATTCAAAGTGAACTTATTTTCCATACGTATACCGGAGTCACCTAGTGCAG	8330 fluorescence intensity (a.u.)
TCGCACACCACAACACACACCTGCCGGCCCCATCACCCCGCGGAGTCACCTAGTGCAG	8420 fluorescence intensity (a.u.)
AATTATCTCAAATACTAATTGTTCGTCATGAAATAATAATCGGAGTCACCTAGTGCAG	8670 fluorescence intensity (a.u.)
GGTTTGTTCGTGTCTTTTGTGGTGATTGCATTTGATTGGGCGGAGTCACCTAGTGCAG	9920 fluorescence intensity (a.u.)
CCCAACTCTACCTTTTTATTTTATTTTGTGAGAGTTTACACGGAGTCACCTAGTGCAG	8410 fluorescence intensity (a.u.)
ACACTCGCCGAGCAAGTTTATGTACCTTATTTTTATCGATCGGAGTCACCTAGTGCAG	9110 fluorescence intensity (a.u.)
AGCAAGACACCCAGTTGTTGACTTCTAATCAGTACTCTGCCGGAGTCACCTAGTGCAG	8500 fluorescence intensity (a.u.)
AAAACCTGAATCCTGCACTGTTTTTAAGTTCGTTTCTGAACGGAGTCACCTAGTGCAG	8600 fluorescence intensity (a.u.)
AATGTTTGACGCCGTTGACTTTTTAGCACATGTTGACCGTCGGAGTCACCTAGTGCAG	42200 fluorescence intensity (a.u.)
TTTTCCCTCAAGAGAACGCGCCGTTATTTTTTTACGTCACCGGAGTCACCTAGTGCAG	8750 fluorescence intensity (a.u.)
ATCACACGCTGCACCTCTCCCGCGCCCACCAGTCCACTCACGGAGTCACCTAGTGCAG	18500 fluorescence intensity (a.u.)
TTGCTTACCGTGTTGTGTTGGTCTCATCGTCTGTCTCGCTCGGAGTCACCTAGTGCAG	9170 fluorescence intensity (a.u.)
TCATATTATAAATTGTTTTGACTTTTTTCCTAATCAAACTCGGAGTCACCTAGTGCAG	10600 fluorescence intensity (a.u.)
TATTAAACTGTCTTGTATGGACTCACTCGCTCACACCTTCCGGAGTCACCTAGTGCAG	9370 fluorescence intensity (a.u.)

Sequence	binding signal
ACTTTTTCAGTTTTTGCGTGTGACATGGTTGCTATTGGCTCGGAGTCACCTAGTGCAG	8560 fluorescence intensity (a.u.)
CTATCGCCCATTCGCCCCTTCGATCTTTTATTTTTCCTTCCGGAGTCACCTAGTGCAG	9080 fluorescence intensity (a.u.)
ATACTTTTTGTGGCATGCCTGGACAATCTTTAAGGTTTCACGGAGTCACCTAGTGCAG	8870 fluorescence intensity (a.u.)
CTATATATCGAGACCGATCGTATCCAGGCGCACGACACTTCGGAGTCACCTAGTGCAG	8270 fluorescence intensity (a.u.)
TTGCTTGGTTTCTGCCACTTCTCATGCAGTGACTTGTACTCGGAGTCACCTAGTGCAG	8820 fluorescence intensity (a.u.)
TTAAGCTTGAATCCTATTTTTCTTCCTTGTTTGTGTTTTGCGGAGTCACCTAGTGCAG	8850 fluorescence intensity (a.u.)
GAGGGAGTAATAGCTTTCTCATGTGCGTCAGCTTAATTTTCGGAGTCACCTAGTGCAG	8270 fluorescence intensity (a.u.)
GTTGGGTTGAGGTGTCCGATTTTTCCTCCTTCATTGGACGCGGAGTCACCTAGTGCAG	8680 fluorescence intensity (a.u.)
GCTTCACGGGCCCGACCTATGTGGCTTGGTTTTTCTTTACCGGAGTCACCTAGTGCAG	10200 fluorescence intensity (a.u.)
CGTCGCACCCAACCCACCAACCACCCGCCGCACGAAACCTCGGAGTCACCTAGTGCAG	9100 fluorescence intensity (a.u.)
GCAGCAACAAGAATTGACTTTGTGGCCTTTGTCCACGAACCGGAGTCACCTAGTGCAG	9580 fluorescence intensity (a.u.)
TCCACCTCGCCGCCATTTGATCGAACACCTGATAGCCATGCGGAGTCACCTAGTGCAG	8680 fluorescence intensity (a.u.)
CCGCCATCGCTACCCTCGGTCGTCGCTTGCCCCGACGACCCGGAGTCACCTAGTGCAG	8180 fluorescence intensity (a.u.)
CTCATCGTTCTTGTCCCCGTCCTGGTGCCAGCTGCTGCTCCGGAGTCACCTAGTGCAG	13600 fluorescence intensity (a.u.)
CTTAAGATCTAGTCTTTATACTCCATGCCAATCCTCGTGTCGGAGTCACCTAGTGCAG	10000 fluorescence intensity (a.u.)
CATCCACTACCATTTCGCCGTCCACTTGTCATTCTTTTCACGGAGTCACCTAGTGCAG	10900 fluorescence intensity (a.u.)
AGCTCATCACTTCTTCTTGCATGCATGCACTACCGTCGGCCGGAGTCACCTAGTGCAG	10400 fluorescence intensity (a.u.)
CAGCTCGAGCTGTTTGCTTGTGGGGTTCTTGTTTTTCTTTCGGAGTCACCTAGTGCAG	8020 fluorescence intensity (a.u.)
TTTCATCAAATTCCTGTGTTTTTCGTGCGGTTGAATCAAACGGAGTCACCTAGTGCAG	8720 fluorescence intensity (a.u.)
CGCTTTCACTTTGTTCTACTACTACTACCGAGCTTTTGAGCGGAGTCACCTAGTGCAG	8060 fluorescence intensity (a.u.)
ATCACTACGCATGTTGTCAGCTGAATGTCTTGTAGCGTGTCGGAGTCACCTAGTGCAG	9420 fluorescence intensity (a.u.)

Sequence	binding signal
CCTGTTGGTCATCCACTAAAATGCGTTTCTTCTCGCAAAACGGAGTCACCTAGTGCAG	8310 fluorescence intensity (a.u.)
ATTTGCAGGTTTAGCCACAGTACGCATGCGTTGTGTTCGTCGGAGTCACCTAGTGCAG	10500 fluorescence intensity (a.u.)
TTCCTCTCTCGCTCATTTTCGCCGCCGCCACCACCGACGACGGAGTCACCTAGTGCAG	11100 fluorescence intensity (a.u.)
AGCTACCACGTCAACTGAATACCCCTGTTCCCGGACAGAACGGAGTCACCTAGTGCAG	9340 fluorescence intensity (a.u.)
AGTTCTACATGTGCCAACCACATCCCAATACGCCGACATCCGGAGTCACCTAGTGCAG	11100 fluorescence intensity (a.u.)
TCGCGTCGTCCCCAAATCCGCTACTCGCTATCCTCCTTCCCGGAGTCACCTAGTGCAG	10700 fluorescence intensity (a.u.)
TGGGGTTTATGGATTTAGGGTCTCGGGCAAAGGCGACAATCGGAGTCACCTAGTGCAG	10600 fluorescence intensity (a.u.)
TTGGATTATGGCGCCATTTGTGAATGAATTTTGGGGTTTTCGGAGTCACCTAGTGCAG	12300 fluorescence intensity (a.u.)
TGCACGCGTCGACCCTTTCTGCTACATGCGTCGAAGCCGACGGAGTCACCTAGTGCAG	8520 fluorescence intensity (a.u.)
GTACGCACATTGTCGTCGGTACCAGCTGCAGCTAGCCCAACGGAGTCACCTAGTGCAG	8530 fluorescence intensity (a.u.)
TTCTTCTTCACGTACTACGCCTGTGCCCCTCGTCACACCTCGGAGTCACCTAGTGCAG	8460 fluorescence intensity (a.u.)
AGTTAAGGGACCCTGCATATCTGGTTTTGTGTTTCGAGAACGGAGTCACCTAGTGCAG	8150 fluorescence intensity (a.u.)
ACACTTGCATATTTACCTTCAAACCTTTTTTTTTCTCTTCCGGAGTCACCTAGTGCAG	8180 fluorescence intensity (a.u.)
CTATGTAGCGTGAGATCCTCTGCCGTCGACGCCATCTTCTCGGAGTCACCTAGTGCAG	8980 fluorescence intensity (a.u.)
AGTGCCAGCTATATTATCACCTACTACTGCCACCTTTATACGGAGTCACCTAGTGCAG	8570 fluorescence intensity (a.u.)
TCCCATCACACACACCACCGCTCCGCTCCATGTCGCACCACGGAGTCACCTAGTGCAG	8350 fluorescence intensity (a.u.)
TAGACTTTTGATTTCCTTTTGTTTCCATTAGTTGGCCAATCGGAGTCACCTAGTGCAG	10400 fluorescence intensity (a.u.)
TAAAAAAAAAGTTTTATTCTCGGGTTCGTTGGGTTTTATCCGGAGTCACCTAGTGCAG	9030 fluorescence intensity (a.u.)
GGATGGGGTGTCTTTTGGTCCAAATTGGAGCTACCGGAACCGGAGTCACCTAGTGCAG	10400 fluorescence intensity (a.u.)
CGGGGAAGGAGAGGGGCGTTAGGGAGGAGGGGCGCACAGACGGAGTCACCTAGTGCAG	16800 fluorescence intensity (a.u.)
GTTCGATGCATCTCGCCACCATGACGTGTACCGCGAAAGACGGAGTCACCTAGTGCAG	8460 fluorescence intensity (a.u.)

An excerpt of these results, in CSV form:
Sequence,binding signal
GGATGGGGTGTCTTTTGGTCCAAATTGGAGCTACCGGAACCGGAGTCACCTAGTGCAG,10400 fluorescence intensity (a.u.)
CGGGGAAGGAGAGGGGCGTTAGGGAGGAGGGGCGCACAGACGGAGTCACCTAGTGCAG,16800 fluorescence intensity (a.u.)
GTTCGATGCATCTCGCCACCATGACGTGTACCGCGAAAGACGGAGTCACCTAGTGCAG,8460 fluorescence intensity (a.u.)

The results go on.

Sequence	binding signal
CGCGGTCGACCCACCGTCTGCCACGTCAGCTTGCTGCCCACGGAGTCACCTAGTGCAG	9510 fluorescence intensity (a.u.)
GCTCTTTTTTTGTTACAACTTCGTCACCGTGTTATCTATACGGAGTCACCTAGTGCAG	9290 fluorescence intensity (a.u.)
TTTCTCTTTAACTTATCCTCTCCAGTAAACCTCTCATACTCGGAGTCACCTAGTGCAG	8360 fluorescence intensity (a.u.)
GTTACATTCTTGTTCAGTCCTCACTACTCATCCCTACAATCGGAGTCACCTAGTGCAG	11500 fluorescence intensity (a.u.)
TTTTGAAGGGGCTGTGGTGATTTGAGACCTAGATGACACACGGAGTCACCTAGTGCAG	8050 fluorescence intensity (a.u.)
ATTATGGTTTAGGGTTAGGGATATGAATTACACTAGTTAACGGAGTCACCTAGTGCAG	9280 fluorescence intensity (a.u.)
CTCTCTGCCGCAATCACCGCGCCTCCTCCGCATTCGCGCGCGGAGTCACCTAGTGCAG	11000 fluorescence intensity (a.u.)
TCCTCTGCCTCCATGGCCACTCCATCCCTGTCCTCCATCCCGGAGTCACCTAGTGCAG	8300 fluorescence intensity (a.u.)
TATTTGTGTCTATGAAATGTGGGTTCAGTGTTATTATAGACGGAGTCACCTAGTGCAG	8990 fluorescence intensity (a.u.)
TGTGTGAGATTTTTGCATGTTTTTGTTGTGTTTGTTCATACGGAGTCACCTAGTGCAG	8580 fluorescence intensity (a.u.)
TCTGGACTGAACCTTTTGCCCATTGGTCATGCAATGTTGCCGGAGTCACCTAGTGCAG	8960 fluorescence intensity (a.u.)
CAACCGAAATGACAGAGGATTGACTACACGCCTATACTATCGGAGTCACCTAGTGCAG	8800 fluorescence intensity (a.u.)
CTTGAATTTTGCGGTGACATACTAATGCAGGACTAAAATCCGGAGTCACCTAGTGCAG	8220 fluorescence intensity (a.u.)
GATTCGGTCTGTTTTGGCCTTCTTGACAATATTAGCATGTCGGAGTCACCTAGTGCAG	9390 fluorescence intensity (a.u.)
GTAGATCTTTTTTTTTCACTAACCGACACCAGGTATATCACGGAGTCACCTAGTGCAG	9710 fluorescence intensity (a.u.)
ATCCTCATGCATGTGCATGTATTACCTACTCATTCCCACCCGGAGTCACCTAGTGCAG	8020 fluorescence intensity (a.u.)
TCAGATCTATTCAATCAGATGATGTTCTTGCCTGATATTCCGGAGTCACCTAGTGCAG	8620 ± 442 fluorescence intensity (a.u.)
TTGTTCCATCACTTCCATACTTCGTGCTGGTTGTAAGATTCGGAGTCACCTAGTGCAG	8660 fluorescence intensity (a.u.)
ACCAACTTAGGCCATATGAATACACCACACGAGTATACGACGGAGTCACCTAGTGCAG	11000 fluorescence intensity (a.u.)
CCCACCCTGACGCTCTGTCTTCTCGCACTCGCGGCGCCGTCGGAGTCACCTAGTGCAG	9380 fluorescence intensity (a.u.)
CAAGGACAAGGTGACTATGCTTGCACGACTTTCCATGCCACGGAGTCACCTAGTGCAG	8060 fluorescence intensity (a.u.)
